The values that follow come from patent US10118944B2, “Cell penetrating peptides for intracellular delivery of molecules” (AADIGEN, LLC, priority 2012, dated 2018).

In assay [1] the test system is MCF7. The assay can be described thus: VEPEP-5 mediated delivery of small hydrophobic molecules, inhibition of proliferation. In kind it is cell-based. Conditions: Homo sapiens, free drug without carrier. An excerpt:
(§1) VEPEP-5 peptides (Short-6, Short-7 and Short 11) have been used for the delivery of different small hydrophobic molecules including doxorubicin and porphyrin on different cell lines including primary cell lines and challenging cell lines. VEPEP-5 peptides form stable particles with small aromatic molecules (table 2). Effect of VEPEP-5 mediated delivery of doxorubicin and porphyrin have been investigated on cancer cell viability. […] The impact of carrier peptides to improve cellular uptake of small molecule drugs was estimated by following inhibition of proliferation of cancer cells.

In assay [2] the test system is Hela. The assay is described as above. Format: cell-based. As to conditions: Homo sapiens, free drug without carrier.
Description: as §1

On to `COc1cccc2c1C(=O)c1c(O)c3c(c(O)c1C2=O)C[C@@](O)(C(=O)CO)C[C@@H]3O[C@H]1C[C@H](N)[C@H](O)[C@H](C)O1` [Doxo, doxorubicin], for which the IC50 is 9 µM in assay [1] and 10 µM in assay [2].

In general, IC50 refers to the point on the concentration scale where inhibition reaches its midpoint.
